# PubChem BioAssay AID504764, Drosophila RNAi Screening Center, 2011
# Purpose: 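Knock-downs that raise or lower a Notch target reporter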 (primary screen)
# Cell system: Drosophila Kc167 cells
# Reagents: long dsRNA against Drosophila genes
# Time to read-out: about 5 days (4 days dsRNA, then 24 h after transfection)
# Challenge: transfection of constitutively active membrane-tethered Notch lacking the extracellular domain, read 24 h later
# Detection: 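Light from a Notch-responsive E(spl)m3 luciferase reporter under active Notch, with control-promoter and no-Notch reporter wells to normalise; raw counts from paired wells a and b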
# Reading the numbers: induced reporter light, run 1, well a and induced reporter light, run 1, well b: higher = more light from the Notch target reporter with active Notch; control promoter light, run 1, well a and control promoter light, run 1, well b: higher = more light from the viral control promoter (cell number, transfection, viability); uninduced reporter light, run 1, well a: higher = more light from the Notch target reporter without active Notch
# Rule for the call: 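Hit if the duplicate-averaged log2 ratio of induced to control-promoter light gives a plate-wise z beyond ±2, or induced to uninduced beyond ±1.8; weak-control or discordant-duplicate wells dropped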
# Meaning of the calls: active = modifier hit (raised or lowered Notch signal); inactive = not a hit
# The screen tested about 22,000 reagents; this is an unselected part of those that have a named target and a result. Of all reagents, 403 (1.9%) got an active call. 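Unnormalised raw counts per well; ratio z-scores behind the hit calls and whether each hit raises or lowers signal are not deposited.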 A plus sign joins genes that one reagent is predicted to hit. Not stated in the record: the amount of reagent.
gene,DRSC id,"induced reporter light, run 1, well a","induced reporter light, run 1, well b","control promoter light, run 1, well a","control promoter light, run 1, well b","uninduced reporter light, run 1, well a",Outcome
CG42241 (retired record),DRSC04007,1.50e5,1.50e5,2.87e5,2.79e5,10275,inactive
CG10486,DRSC09735,2.77e5,2.25e5,4.02e5,3.44e5,12990,inactive
Rab32,DRSC05146,35030,53090,57695,71725,1825,inactive
Rab32,DRSC07522,1.83e5,2.13e5,1.87e5,1.84e5,15650,inactive
CG18011,DRSC06697,1.53e5,1.52e5,1.50e5,1.51e5,15175,inactive
CG18011,DRSC06706,2.25e5,2.32e5,2.08e5,2.49e5,16355,inactive
wus,DRSC20278,1.28e5,1.17e5,1.05e5,58250,10975,inactive
CG30158,DRSC04956,37800,48895,60045,63265,2175,inactive
CG30158,DRSC04974,2.03e5,1.97e5,1.99e5,2.16e5,14982,inactive
CG30158,DRSC04975,1.47e5,1.57e5,1.84e5,1.52e5,12970,inactive
CG30158,DRSC05012,1.49e5,1.52e5,1.88e5,1.70e5,12170,inactive
Porin2,DRSC02584,1.32e5,1.82e5,1.04e5,1.26e5,21265,inactive
CG43980,DRSC11500,2.11e5,2.23e5,2.09e5,2.22e5,17542,inactive
CG43980,DRSC11646,33515,23900,20350,26475,1970,inactive
CG14183,DRSC10182,1.18e5,1.12e5,69500,81975,9330,inactive
CG4440,DRSC02747,77400,1.12e5,92000,1.09e5,9270,inactive
CG6870,DRSC02998,1.43e5,1.48e5,1.45e5,1.91e5,11360,inactive
CG11164,DRSC19392,58045,57605,45755,52605,4410,active
Rok,DRSC20277,80760,66770,79075,62975,4520,active
CG43325,DRSC04157,1.89e5,2.19e5,2.22e5,2.02e5,13475,inactive
E(z),DRSC11147,64775,75595,69580,25455,6890,inactive
CG17026,DRSC10237,1.60e5,1.65e5,1.60e5,1.26e5,8082,inactive
CG14627,DRSC18630,61355,50820,65835,94190,5438,inactive
CG9628,DRSC11082,1.01e5,1.29e5,76315,87640,8205,inactive

Continued; the last 7 above are carried over.
gene,DRSC id,"induced reporter light, run 1, well a","induced reporter light, run 1, well b","control promoter light, run 1, well a","control promoter light, run 1, well b","uninduced reporter light, run 1, well a",Outcome
CG11164,DRSC19392,58045,57605,45755,52605,4410,active
Rok,DRSC20277,80760,66770,79075,62975,4520,active
CG43325,DRSC04157,1.89e5,2.19e5,2.22e5,2.02e5,13475,inactive
E(z),DRSC11147,64775,75595,69580,25455,6890,inactive
CG17026,DRSC10237,1.60e5,1.65e5,1.60e5,1.26e5,8082,inactive
CG14627,DRSC18630,61355,50820,65835,94190,5438,inactive
CG9628,DRSC11082,1.01e5,1.29e5,76315,87640,8205,inactive
Vta1,DRSC08604,1.55e5,1.26e5,1.91e5,1.87e5,8642,inactive
bero,DRSC03211,45950,48125,39985,37235,1820,inactive
CG15283,DRSC01980,1.49e5,1.63e5,1.42e5,1.27e5,13060,inactive
CG3347,DRSC00597,2.07e5,2.66e5,3.14e5,2.90e5,17470,inactive
PGRP-LD + Pmi,DRSC10512,1.10e5,1.44e5,1.03e5,76485,16335,inactive
PGRP-LD + Pmi,DRSC10513,1.54e5,1.63e5,1.60e5,1.13e5,13030,inactive
dome,DRSC19583,96410,93525,68840,44875,6460,inactive
CG31883,DRSC02561,2.43e5,2.51e5,1.62e5,2.03e5,20325,inactive
CG13029,DRSC09909,2.22e5,2.26e5,2.84e5,2.66e5,11255,inactive
CG14540,DRSC14884,77700,70185,79395,78665,7990,inactive
CG18545,DRSC15343,81450,88895,75735,64785,5680,inactive
GLaz,DRSC07431,76595,72960,90595,1.07e5,7130,inactive
Coq4 + Gorab + frc,DRSC10383,1.69e5,2.18e5,2.83e5,3.07e5,6690,inactive
SNCF,DRSC10115,1.66e5,1.49e5,1.81e5,1.57e5,7732,inactive
Dbp45A,DRSC07395,1.16e5,1.52e5,1.42e5,1.24e5,12642,inactive
Snx1,DRSC00531,1.22e5,1.38e5,1.19e5,99955,8475,inactive
swm,DRSC02012,2.04e5,1.78e5,1.93e5,1.44e5,14205,inactive
Plap,DRSC00678,1.77e5,1.75e5,2.18e5,1.73e5,16570,inactive
CG13127,DRSC02223,98410,1.06e5,71210,88175,16415,inactive
CkIalpha,DRSC20231,54435,45325,58985,64600,3510,inactive
CkIalpha,DRSC22609,,,,,,active
Task6,DRSC16530,1.79e5,2.20e5,2.03e5,1.89e5,15750,inactive
Cyp6a13,DRSC07375,2.07e5,1.75e5,2.11e5,2.00e5,17375,inactive
CG33233,DRSC08239,1.10e5,1.18e5,1.81e5,2.91e5,9425,inactive
CG1137,DRSC12529,83940,87705,98655,65770,5360,inactive
CG12983,DRSC11692,1.44e5,1.03e5,86380,95650,9145,inactive
